Laboratory results published in the supplement of paper PMC12067093, “Discovery and optimisation of a covalent ligand for TRIM25 and its application to targeted protein ubiquitination” (Chemical Science, 2025).
Some of the results follow.

Amino acid sequences for entries named in this document (tags omitted). A change or cut given only in a name is not applied to a line headed by its entry.
UniProt Q9H832: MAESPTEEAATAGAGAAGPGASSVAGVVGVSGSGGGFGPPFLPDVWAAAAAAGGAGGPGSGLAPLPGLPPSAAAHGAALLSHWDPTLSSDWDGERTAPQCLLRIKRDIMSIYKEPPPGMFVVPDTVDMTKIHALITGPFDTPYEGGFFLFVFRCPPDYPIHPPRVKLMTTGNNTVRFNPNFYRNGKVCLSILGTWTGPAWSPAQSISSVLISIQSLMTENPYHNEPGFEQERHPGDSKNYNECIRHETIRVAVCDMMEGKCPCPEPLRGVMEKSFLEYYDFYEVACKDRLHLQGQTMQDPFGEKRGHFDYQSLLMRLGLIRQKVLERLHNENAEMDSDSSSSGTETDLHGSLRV
UniProt Q16881, whole entry, looked up: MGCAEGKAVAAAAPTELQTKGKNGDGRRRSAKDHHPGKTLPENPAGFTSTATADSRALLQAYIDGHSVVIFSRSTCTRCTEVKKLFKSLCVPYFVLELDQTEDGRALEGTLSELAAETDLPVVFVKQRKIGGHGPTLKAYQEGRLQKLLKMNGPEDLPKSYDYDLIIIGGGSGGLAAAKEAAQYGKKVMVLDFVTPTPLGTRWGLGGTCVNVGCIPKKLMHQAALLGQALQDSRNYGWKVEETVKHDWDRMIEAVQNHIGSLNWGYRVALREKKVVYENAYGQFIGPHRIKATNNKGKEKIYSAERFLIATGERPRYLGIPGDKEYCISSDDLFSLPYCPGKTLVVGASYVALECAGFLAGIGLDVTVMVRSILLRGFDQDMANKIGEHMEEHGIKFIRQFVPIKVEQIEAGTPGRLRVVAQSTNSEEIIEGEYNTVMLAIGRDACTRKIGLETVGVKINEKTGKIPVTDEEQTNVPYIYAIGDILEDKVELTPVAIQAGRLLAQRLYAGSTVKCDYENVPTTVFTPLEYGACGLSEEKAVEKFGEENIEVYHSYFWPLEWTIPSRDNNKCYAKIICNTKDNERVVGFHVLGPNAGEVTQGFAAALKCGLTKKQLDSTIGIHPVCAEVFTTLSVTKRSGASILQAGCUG
UniProt Q14139: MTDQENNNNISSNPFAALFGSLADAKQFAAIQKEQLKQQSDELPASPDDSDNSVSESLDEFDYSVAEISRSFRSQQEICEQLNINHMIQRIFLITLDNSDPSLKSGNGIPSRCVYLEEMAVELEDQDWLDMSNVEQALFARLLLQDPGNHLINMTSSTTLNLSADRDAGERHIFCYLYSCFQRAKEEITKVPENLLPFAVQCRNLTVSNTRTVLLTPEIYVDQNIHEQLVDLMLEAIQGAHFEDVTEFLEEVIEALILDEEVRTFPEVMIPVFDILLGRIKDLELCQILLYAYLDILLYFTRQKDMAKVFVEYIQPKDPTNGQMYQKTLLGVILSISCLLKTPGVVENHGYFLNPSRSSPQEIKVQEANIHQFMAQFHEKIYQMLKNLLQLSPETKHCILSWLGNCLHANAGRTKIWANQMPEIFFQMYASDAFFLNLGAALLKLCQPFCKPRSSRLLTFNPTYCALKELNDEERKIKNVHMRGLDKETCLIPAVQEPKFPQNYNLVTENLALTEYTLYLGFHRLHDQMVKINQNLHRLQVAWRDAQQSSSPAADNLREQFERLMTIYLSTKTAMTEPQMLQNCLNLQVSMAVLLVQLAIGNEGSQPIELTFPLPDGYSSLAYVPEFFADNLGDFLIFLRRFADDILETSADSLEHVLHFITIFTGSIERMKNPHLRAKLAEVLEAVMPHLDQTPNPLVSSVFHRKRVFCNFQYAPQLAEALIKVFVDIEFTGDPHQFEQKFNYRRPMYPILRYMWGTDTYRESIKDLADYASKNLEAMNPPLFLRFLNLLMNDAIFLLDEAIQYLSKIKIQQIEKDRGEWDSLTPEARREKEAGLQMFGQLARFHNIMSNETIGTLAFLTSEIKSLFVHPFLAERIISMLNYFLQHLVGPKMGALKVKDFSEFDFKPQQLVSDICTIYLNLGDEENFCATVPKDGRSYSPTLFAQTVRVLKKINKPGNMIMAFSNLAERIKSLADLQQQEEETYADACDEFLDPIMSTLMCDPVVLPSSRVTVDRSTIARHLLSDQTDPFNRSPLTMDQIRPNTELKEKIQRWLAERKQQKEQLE
UniProt O14933: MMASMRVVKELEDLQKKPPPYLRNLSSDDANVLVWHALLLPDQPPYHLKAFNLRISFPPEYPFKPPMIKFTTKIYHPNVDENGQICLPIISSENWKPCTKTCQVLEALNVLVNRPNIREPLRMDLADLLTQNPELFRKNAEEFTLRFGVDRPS
UniProt P19971: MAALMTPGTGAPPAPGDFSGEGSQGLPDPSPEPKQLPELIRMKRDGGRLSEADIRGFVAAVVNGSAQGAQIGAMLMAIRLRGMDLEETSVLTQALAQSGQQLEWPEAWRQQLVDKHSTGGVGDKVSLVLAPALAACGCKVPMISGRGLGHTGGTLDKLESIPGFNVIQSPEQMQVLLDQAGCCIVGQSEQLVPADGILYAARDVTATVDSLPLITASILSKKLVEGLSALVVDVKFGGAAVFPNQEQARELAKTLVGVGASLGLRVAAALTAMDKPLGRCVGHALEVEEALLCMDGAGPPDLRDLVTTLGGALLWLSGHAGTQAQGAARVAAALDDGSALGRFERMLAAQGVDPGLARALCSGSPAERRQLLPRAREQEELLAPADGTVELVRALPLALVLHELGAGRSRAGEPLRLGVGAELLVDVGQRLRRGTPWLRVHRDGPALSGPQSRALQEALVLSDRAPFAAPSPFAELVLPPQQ
UniProt O95071: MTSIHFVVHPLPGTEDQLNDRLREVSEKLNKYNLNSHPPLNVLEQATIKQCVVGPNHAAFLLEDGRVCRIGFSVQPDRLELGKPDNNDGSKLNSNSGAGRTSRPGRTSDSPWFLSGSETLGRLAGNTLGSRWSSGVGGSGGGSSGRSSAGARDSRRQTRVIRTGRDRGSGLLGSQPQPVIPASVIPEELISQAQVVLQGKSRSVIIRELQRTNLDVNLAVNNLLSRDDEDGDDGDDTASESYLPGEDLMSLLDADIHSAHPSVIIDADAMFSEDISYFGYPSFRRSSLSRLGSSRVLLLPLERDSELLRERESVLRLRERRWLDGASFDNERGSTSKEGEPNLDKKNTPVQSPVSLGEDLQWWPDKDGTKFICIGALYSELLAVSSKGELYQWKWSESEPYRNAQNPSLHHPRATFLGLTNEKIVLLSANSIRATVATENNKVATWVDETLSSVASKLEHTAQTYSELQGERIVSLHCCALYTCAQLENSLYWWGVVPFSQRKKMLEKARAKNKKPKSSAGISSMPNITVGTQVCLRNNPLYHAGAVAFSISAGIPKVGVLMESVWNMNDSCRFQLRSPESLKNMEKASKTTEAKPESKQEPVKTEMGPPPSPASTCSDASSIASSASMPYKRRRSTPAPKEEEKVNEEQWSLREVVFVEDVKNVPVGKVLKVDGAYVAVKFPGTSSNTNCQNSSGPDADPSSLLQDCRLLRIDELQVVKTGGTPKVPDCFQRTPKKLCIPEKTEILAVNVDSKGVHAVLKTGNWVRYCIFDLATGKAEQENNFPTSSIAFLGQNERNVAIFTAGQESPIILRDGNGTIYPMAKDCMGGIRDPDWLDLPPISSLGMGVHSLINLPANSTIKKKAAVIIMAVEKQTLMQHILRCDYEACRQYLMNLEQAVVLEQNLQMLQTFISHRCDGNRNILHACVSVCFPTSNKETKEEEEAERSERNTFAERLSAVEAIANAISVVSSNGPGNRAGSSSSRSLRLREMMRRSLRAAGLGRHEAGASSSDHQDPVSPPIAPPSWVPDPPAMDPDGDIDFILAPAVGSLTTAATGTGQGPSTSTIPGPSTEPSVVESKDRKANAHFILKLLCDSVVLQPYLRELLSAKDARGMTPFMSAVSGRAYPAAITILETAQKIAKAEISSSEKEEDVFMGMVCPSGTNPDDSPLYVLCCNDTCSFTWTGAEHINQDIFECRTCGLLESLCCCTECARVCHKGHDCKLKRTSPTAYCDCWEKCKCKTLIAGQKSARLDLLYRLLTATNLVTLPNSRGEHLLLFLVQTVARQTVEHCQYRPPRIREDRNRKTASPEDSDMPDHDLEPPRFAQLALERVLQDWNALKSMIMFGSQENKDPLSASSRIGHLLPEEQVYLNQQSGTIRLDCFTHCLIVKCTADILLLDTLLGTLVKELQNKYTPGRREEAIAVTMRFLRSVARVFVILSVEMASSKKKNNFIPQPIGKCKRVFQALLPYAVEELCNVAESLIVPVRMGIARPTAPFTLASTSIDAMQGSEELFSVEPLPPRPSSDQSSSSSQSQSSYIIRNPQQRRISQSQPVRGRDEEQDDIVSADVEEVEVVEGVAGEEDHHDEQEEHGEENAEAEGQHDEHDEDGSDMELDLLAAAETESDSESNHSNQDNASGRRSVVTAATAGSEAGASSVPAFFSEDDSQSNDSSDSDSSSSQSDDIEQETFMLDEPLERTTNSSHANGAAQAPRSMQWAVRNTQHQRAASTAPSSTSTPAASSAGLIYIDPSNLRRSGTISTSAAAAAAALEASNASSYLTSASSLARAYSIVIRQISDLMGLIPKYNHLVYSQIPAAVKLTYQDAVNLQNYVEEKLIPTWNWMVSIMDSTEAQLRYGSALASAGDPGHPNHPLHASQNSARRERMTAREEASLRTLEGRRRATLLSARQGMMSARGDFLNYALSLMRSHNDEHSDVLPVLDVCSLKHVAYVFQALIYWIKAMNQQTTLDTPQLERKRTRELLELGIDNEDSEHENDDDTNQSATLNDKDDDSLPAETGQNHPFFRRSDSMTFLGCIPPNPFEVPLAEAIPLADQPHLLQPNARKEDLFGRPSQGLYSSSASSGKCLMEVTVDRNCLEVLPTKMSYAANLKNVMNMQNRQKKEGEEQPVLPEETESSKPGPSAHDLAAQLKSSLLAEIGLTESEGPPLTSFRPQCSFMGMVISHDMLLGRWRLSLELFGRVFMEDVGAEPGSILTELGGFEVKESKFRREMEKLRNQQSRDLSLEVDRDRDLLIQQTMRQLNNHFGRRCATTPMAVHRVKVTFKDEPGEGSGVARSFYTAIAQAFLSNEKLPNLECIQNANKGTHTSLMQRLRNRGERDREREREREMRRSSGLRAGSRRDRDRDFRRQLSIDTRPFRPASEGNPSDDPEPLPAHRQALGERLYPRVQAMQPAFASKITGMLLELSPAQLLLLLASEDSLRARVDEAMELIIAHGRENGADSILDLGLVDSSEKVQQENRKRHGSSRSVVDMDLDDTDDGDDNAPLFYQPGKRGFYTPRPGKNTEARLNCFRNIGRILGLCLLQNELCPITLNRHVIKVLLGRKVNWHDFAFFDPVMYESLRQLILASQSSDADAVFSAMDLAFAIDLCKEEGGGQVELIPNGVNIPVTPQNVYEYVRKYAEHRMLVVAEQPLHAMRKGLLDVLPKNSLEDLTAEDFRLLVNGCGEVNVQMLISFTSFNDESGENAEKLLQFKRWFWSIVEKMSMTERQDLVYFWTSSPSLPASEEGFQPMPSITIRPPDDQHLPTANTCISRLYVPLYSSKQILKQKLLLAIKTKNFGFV
UniProt Q14157: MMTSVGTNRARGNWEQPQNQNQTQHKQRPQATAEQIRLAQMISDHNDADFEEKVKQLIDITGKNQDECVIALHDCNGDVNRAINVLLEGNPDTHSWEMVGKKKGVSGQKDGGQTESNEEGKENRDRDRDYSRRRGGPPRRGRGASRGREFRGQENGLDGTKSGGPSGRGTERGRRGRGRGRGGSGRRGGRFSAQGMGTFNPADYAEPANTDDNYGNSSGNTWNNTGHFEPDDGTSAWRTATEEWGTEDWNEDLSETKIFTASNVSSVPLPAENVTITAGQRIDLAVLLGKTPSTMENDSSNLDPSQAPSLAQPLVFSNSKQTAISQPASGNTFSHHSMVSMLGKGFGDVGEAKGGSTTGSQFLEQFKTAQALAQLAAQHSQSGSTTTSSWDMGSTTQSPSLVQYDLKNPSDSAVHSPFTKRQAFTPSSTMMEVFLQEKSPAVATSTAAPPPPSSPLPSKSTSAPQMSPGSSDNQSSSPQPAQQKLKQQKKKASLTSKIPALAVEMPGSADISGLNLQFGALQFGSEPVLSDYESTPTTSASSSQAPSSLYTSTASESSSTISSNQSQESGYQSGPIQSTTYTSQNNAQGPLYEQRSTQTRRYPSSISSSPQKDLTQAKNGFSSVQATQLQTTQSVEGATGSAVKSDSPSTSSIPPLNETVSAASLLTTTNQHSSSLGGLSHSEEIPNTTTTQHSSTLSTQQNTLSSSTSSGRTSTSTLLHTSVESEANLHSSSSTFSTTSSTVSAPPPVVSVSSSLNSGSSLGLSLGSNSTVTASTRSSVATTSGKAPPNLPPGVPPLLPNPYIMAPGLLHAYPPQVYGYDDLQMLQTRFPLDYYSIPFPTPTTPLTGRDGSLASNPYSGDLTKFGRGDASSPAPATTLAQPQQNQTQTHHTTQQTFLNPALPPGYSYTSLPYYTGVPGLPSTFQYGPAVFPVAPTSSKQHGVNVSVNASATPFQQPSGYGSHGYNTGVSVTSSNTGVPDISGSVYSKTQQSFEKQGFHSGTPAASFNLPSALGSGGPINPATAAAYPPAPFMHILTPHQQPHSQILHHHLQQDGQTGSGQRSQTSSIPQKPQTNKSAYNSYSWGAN

Compound: CC1Cc2ccccc2N1C(=O)C1CCCN(C1)C(=O)CCl (mixture of isomers) [TRIM25 ligand 11 (diastereomer mixture)]
Assay: probe-labelled cysteine peptide fold change vs DMSO (competition) (log2 fold change); higher = less target engagement (more negative = stronger competition)
Conditions: THP-1, incubation time: 4 h
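Further: competitive chemoproteomic profiling in live THP-1 cells with an iodoacetamide desthiobiotin (IA-DTB) probe, comparing probe-labelled peptide intensities in compound-treated cells against DMSO-treated controls.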

Row | Target | probe-labelled cysteine peptide fold change (10 µM) | probe-labelled cysteine peptide fold change (50 µM)
1 | UBE2Z_Q9H832_243_NYNECIR (UniProt Q9H832) | -0.049 | -0.0648
2 | UBR3_Q6ZT12_288_DLTSGLGENACVK (UniProt Q6ZT12) | -0.00485 | -0.193
3 | TXNRD1_Q16881_577_IICNTK (UniProt Q16881) | 0.634 | 0.851
4 | UBE4A_Q14139_710_VFCNFQYAPQLAEALIK (UniProt Q14139) | -0.0315 | -0.042
5 | UBR4_Q5T4S7_779_ASAQGDPDVPECLK (UniProt Q5T4S7) | 0.111 | 0.287
6 | UBE2L6_O14933_102_TCQVLEALNVLVNRPNIREPLR (UniProt O14933) | -0.185 | -0.337
7 | TYMP_P19971_138_VSLVLAPALAACGCK (UniProt P19971) | -0.0756 | -0.184
8 | UBA6_A0AVT1_473_LQNLNIFLVGCGAIGCEMLK | -0.0477 | -0.112
9 | UBR4_Q5T4S7_4839+4841_QMEELIEEPGLTCCICR (UniProt Q5T4S7) | 0.337 | 0.209
10 | UBR5_O95071_1093_LLCDSVVLQPYLR (UniProt O95071) | -0.0536 | -0.0369
11 | TXNDC5_Q8NBS9_128_VDCTAHSDVCSAQGVR (UniProt Q8NBS9) | -0.0645 | -0.13
12 | UBASH3B_Q8TF42_367_RPYEDQGLGETTPLTIICQPMQPLR (UniProt Q8TF42) | -0.187 | -0.37
13 | UBR5_O95071_2094_NCLEVLPTK (UniProt O95071) | -0.246 | 0.0107
14 | UBAP2L_Q14157_75_NQDECVIALHDCNGDVNR (UniProt Q14157) | -0.188 | -0.237

A second format for part of the listing above:
Row	Target	probe-labelled cysteine peptide fold change (10 µM)	probe-labelled cysteine peptide fold change (50 µM)
3	TXNRD1_Q16881_577_IICNTK (UniProt Q16881)	0.634	0.851
7	TYMP_P19971_138_VSLVLAPALAACGCK (UniProt P19971)	-0.0756	-0.184
14	UBAP2L_Q14157_75_NQDECVIALHDCNGDVNR (UniProt Q14157)	-0.188	-0.237
